{"sequences": {"note": "Amino acid sequences for entries named in this document (tags omitted).", "UniProt P49841": "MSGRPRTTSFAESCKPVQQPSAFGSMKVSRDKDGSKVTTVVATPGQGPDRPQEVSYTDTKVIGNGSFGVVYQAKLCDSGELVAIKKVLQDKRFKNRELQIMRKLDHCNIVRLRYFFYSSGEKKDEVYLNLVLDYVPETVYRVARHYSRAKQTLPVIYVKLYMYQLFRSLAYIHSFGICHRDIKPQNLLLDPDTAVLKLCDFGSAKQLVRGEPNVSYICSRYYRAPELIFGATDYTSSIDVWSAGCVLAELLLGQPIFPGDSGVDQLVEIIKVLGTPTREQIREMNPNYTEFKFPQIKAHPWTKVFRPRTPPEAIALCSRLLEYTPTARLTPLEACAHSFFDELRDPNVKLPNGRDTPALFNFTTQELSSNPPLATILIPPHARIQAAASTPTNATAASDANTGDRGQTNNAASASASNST"}, "source": "paper PMC3458851", "biological_target": "T1, SARI (suppressor of AP-1, regulated by IFN) (human) (UniProt Q8N1L9)", "T1 sequence": "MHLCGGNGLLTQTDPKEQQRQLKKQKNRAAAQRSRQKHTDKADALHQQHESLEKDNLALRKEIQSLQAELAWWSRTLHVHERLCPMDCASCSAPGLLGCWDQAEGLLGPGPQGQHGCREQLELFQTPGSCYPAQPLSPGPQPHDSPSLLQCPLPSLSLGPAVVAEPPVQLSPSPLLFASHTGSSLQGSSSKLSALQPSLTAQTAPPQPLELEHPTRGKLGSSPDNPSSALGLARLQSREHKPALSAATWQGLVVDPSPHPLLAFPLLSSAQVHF", "test": "co-IP; lysates of GLC-82 cells transfected with control vector or SARI; lysis buffer 50 mM Tris-HCl pH 7.5, 150 mM NaCl, 0.1% Triton X-100, 1 mM EDTA, on ice; immunoprecipitated with GSK-3β, PP2A or SARI antibodies, western blot with SARI, Flag, PP2A or GSK3β antibodies", "note": "No constants are given. Whether binding was seen depends on the method and setting. Binding seen in cells or lysates may run through a third protein. Some entries that bind do so weakly or less than the wild type."}
{"substance": "Glycogen synthase kinase (GSK)-3β (from UniProt P49841 1-420) (enzyme)", "values": [{"measurement": "binding", "value": "binds"}]}
